Measured values as given in patent publication US20120269765A1.
These are yes or no findings as the source states them, for the method shown. Some results given as binding are weak or reduced against the parent protein; the word gives no strength.

Chains of the proteins cited; added tags and fusions are not shown. Lines headed by an entry give the natural chain unless they say otherwise; changes in a name come on top.
UniProt Q9NPF7: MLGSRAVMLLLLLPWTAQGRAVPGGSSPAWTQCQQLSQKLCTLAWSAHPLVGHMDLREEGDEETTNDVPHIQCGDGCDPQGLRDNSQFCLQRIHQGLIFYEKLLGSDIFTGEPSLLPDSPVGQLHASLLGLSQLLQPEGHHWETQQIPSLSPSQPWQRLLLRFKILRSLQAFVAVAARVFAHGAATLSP

Tests used:
[1] = target: T1, extracellular domain of murine IL-12Rβ1 (murine) (UniProt Q60837); test: gel filtration, Coomassie gel of fractions
T1 sequence (looked up): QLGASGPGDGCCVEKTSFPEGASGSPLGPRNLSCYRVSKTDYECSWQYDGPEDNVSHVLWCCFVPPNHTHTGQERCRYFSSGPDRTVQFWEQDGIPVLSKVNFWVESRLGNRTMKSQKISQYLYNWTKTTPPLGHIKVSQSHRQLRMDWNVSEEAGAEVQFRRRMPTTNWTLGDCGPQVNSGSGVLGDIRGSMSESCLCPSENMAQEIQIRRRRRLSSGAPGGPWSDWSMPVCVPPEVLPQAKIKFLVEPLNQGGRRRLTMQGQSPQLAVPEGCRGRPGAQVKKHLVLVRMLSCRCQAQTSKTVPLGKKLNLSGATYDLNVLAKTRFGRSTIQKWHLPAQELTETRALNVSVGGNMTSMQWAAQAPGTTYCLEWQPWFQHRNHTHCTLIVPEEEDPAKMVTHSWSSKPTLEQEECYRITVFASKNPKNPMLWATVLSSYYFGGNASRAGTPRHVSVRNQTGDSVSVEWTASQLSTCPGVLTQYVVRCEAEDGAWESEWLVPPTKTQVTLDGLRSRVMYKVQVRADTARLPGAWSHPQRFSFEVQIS

[2] = target: T1, extracellular domain of murine IL-12Rβ1 (murine); test: gel filtration chromatography, co-injection

- binding [1]: binds
- binding [2]: binds
Substance: IL-23 (p19/p40 heterodimer) (from UniProt Q9NPF7 20-189; P29460 23-328) (ligand)
